In the experiment the test system is Salmonella enterica serovar Typhimurium SL1344. Kind of experiment: bacterial growth OD600 after 18 h with compound and polymyxin B; higher = more bacterial growth (less inhibition). As to conditions: 50 µM, Mueller-Hinton broth.

The other results are listed elsewhere or left out. Values are raw readings; no control value is given beside them.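 In the initial screen, polymyxin B was used at a concentration that permeabilizes Salmonella's outer membrane but not its inner membrane. Maximum growth was set by DMSO wells with or without polymyxin B. Since plates varied, data were ranked per plate, and compounds giving the lowest OD600 advanced as hits.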

As for `CCN1CCN(C(=O)CCC2CCN(C(=O)c3sccc3C)CC2)CC1`, the “bacterial growth OD600” value (polymyxin B 1 µg/mL) was 0.998.
Consider `Cn1c(CNC(=O)CCC2(Cc3cccs3)CCC(=O)N2)nc2cc(C(F)(F)F)ccc21` (stereo not given), for which the “bacterial growth OD600” value (polymyxin B 0.75 µg/mL) came out at 0.739.
On to `CCOC(=O)C1(Cc2ccc(F)cc2)CCCN(C(=O)c2cn3c(C)cccc3n2)C1` (stereo not given), for which the “bacterial growth OD600” value (polymyxin B 1 µg/mL) worked out at 0.004.
Still for that read-out and setting: with `CCOC(=O)C1(Cc2ccc(Cl)cc2)CCN(CC(O)CO)CC1` (stereo not given) the figure was 0.826.
On to `CC(C)Cn1cc(C(=O)NCCc2cccs2)c(=O)c(C(=O)N2CCCCCC2)c1`, for which, under “polymyxin B 0.75 µg/mL”, the “bacterial growth OD600” value came out at 0.784.
`CCOC(=O)N1CCC(NC(=O)C2CC23CCN(C(=O)C2(c4ccc(Cl)cc4)CC2)CC3)CC1` (stereo not given): the “bacterial growth OD600” value (polymyxin B 0.75 µg/mL) stood at 0.86.
On the same count and under the same terms, with `CCN(C)C(=O)[C@H]1C[C@@](CC(C)C)(C(=O)OC)N(C)[C@H]1c1cccnc1` the figure was 0.834.
In the case of `O=C(NCCOc1ccccc1)C1CCC(=O)N(C2CC2)C1` (stereo not given), the “bacterial growth OD600” value (polymyxin B 1 µg/mL) is 0.932.
Regarding `COc1ccc(CCN2C(=O)O[C@@H]3CN(c4ncccn4)C[C@@H]32)cc1`, the “bacterial growth OD600” value (polymyxin B 0.75 µg/mL) worked out at 0.866.
`CCN(CC1CCCN(CCc2cccc(F)c2)C1)C(=O)CN1CCCCC1=O` (stereo not given): the “bacterial growth OD600” value (polymyxin B 0.75 µg/mL) was determined as 0.801.
`Cc1cc(C)n(CC(=O)N2CCCC(CCC(=O)N3CCN(c4ccccn4)CC3)C2)n1` (stereo not given): the “bacterial growth OD600” value (polymyxin B 1 µg/mL) was 0.883.
On the same count and under the same terms, with `COCc1noc(-c2ccc(OCC3(C)CCCNC3)nc2)n1` (stereo not given) the figure was 0.939.
With `COc1cccc(-c2cnc(-c3ccncc3)nc2C2CCN(Cc3ccc(OC)cc3O)CC2)c1`, the “bacterial growth OD600” value (polymyxin B 0.75 µg/mL) was 0.894.
Regarding `COc1cc(C(=O)N2CCCC(Nc3ccc(C)c(C)c3)C2)cc(OC)c1OC` (stereo not given), where the note is “polymyxin B 1 µg/mL”, the “bacterial growth OD600” value worked out at 0.935.
Turning to `O=C(NCCC1COc2ccccc2O1)c1ccc(N[C@H]2CC[C@H](O)CC2)nc1` (stereo not given in full), under “polymyxin B 0.75 µg/mL”, the “bacterial growth OD600” value was 0.753.
Consider `Cc1ccc2c(c1)CN(CC(=O)NCc1cn3c(n1)SCC3)CC(c1ccsc1)O2` (stereo not given), for which, where the note is “polymyxin B 0.75 µg/mL”, the “bacterial growth OD600” value was determined as 0.009.
For `Cc1nc(-c2ccncc2)ncc1C(C)NC(=O)c1c(F)cccc1F` (stereo not given), for the setting “polymyxin B 1 µg/mL”, the “bacterial growth OD600” value came out at 0.911.
`CN(C(=O)Cn1cccn1)C(Cc1ccccc1)C1CCN(C(=O)c2cccc(C(F)(F)F)c2)CC1` (stereo not given): the “bacterial growth OD600” value (polymyxin B 0.75 µg/mL) amounted to 0.844.
With `COc1cccc(OCc2nc(C(=O)NC3(c4ccccc4)CC3)co2)c1`, the “bacterial growth OD600” value (polymyxin B 1 µg/mL) was determined as 0.89.
In the case of `CSc1ccc(CNC(=O)C2CCC(=O)N(Cc3ccccn3)C2)cc1` (stereo not given), the “bacterial growth OD600” value (polymyxin B 1 µg/mL) amounted to 1.13.
On the same count and under the same terms, the result for `Cc1noc(C)c1CCCNC(=O)c1ccc(N2CCN(C)CC2)nc1` reads 1.14; that for `CC1(C)CC(Nc2ccc(C(=O)NCCCc3ccccn3)cn2)CCO1` (stereo not given), 0.956.
For `CSc1cccc(CN2CCN(Cc3ccccc3F)C(CCO)C2)c1` (stereo not given), where the note is “polymyxin B 1 µg/mL”, the “bacterial growth OD600” value turned out to be 0.916.
Consider `Cc1cc(C)c(CNC(C)c2cnc(-c3ccncc3)nc2C)cc1C` (stereo not given), for which the “bacterial growth OD600” value (polymyxin B 1 µg/mL) worked out at 0.574.
As to `COc1ccc(OC2CCN(C(=O)C3CC3)CC2)c(C(=O)NC(C)C2CC2)c1` (stereo not given), the “bacterial growth OD600” value (polymyxin B 1 µg/mL) turned out to be 1.11.
On to `COCCCN1C(=O)CC(CC(=O)N2CCN(C(=O)c3ccco3)CC2)(c2ccccc2C)C1=O` (stereo not given), for which, under “polymyxin B 0.75 µg/mL”, the “bacterial growth OD600” value turned out to be 0.863.
The same measure, in the same setting: the result for `CCOC(c1ccccc1)c1ccc2c(c1)CN(C(=O)CSc1ccncc1)CCO2` (stereo not given) reads 0.795; that for `COc1cccc(CN2CCC3(CC2)c2ccccc2[C@@H](NC(=O)c2ccccc2OC)[C@@H]3OC)c1`, 0.782; that for `O=C(c1ccc(NC2CCCC2)nc1)N1CCC(Oc2cccnc2)CC1`, 0.795.
With `CCN(CC)CCN(C)C(=O)CC1(c2cccc(F)c2)CC(=O)N(Cc2cccnc2)C1=O` (stereo not given), where the note is “polymyxin B 0.75 µg/mL”, the “bacterial growth OD600” value was determined as 0.771.
